The results in this text go back to the supplement of paper PMC10849652.

Sequences of proteins named here, by UniProt entry; tags and fusion partners are left off. A change or cut given only in a name is not applied to a line headed by its entry.
UniProt Q8WXE9: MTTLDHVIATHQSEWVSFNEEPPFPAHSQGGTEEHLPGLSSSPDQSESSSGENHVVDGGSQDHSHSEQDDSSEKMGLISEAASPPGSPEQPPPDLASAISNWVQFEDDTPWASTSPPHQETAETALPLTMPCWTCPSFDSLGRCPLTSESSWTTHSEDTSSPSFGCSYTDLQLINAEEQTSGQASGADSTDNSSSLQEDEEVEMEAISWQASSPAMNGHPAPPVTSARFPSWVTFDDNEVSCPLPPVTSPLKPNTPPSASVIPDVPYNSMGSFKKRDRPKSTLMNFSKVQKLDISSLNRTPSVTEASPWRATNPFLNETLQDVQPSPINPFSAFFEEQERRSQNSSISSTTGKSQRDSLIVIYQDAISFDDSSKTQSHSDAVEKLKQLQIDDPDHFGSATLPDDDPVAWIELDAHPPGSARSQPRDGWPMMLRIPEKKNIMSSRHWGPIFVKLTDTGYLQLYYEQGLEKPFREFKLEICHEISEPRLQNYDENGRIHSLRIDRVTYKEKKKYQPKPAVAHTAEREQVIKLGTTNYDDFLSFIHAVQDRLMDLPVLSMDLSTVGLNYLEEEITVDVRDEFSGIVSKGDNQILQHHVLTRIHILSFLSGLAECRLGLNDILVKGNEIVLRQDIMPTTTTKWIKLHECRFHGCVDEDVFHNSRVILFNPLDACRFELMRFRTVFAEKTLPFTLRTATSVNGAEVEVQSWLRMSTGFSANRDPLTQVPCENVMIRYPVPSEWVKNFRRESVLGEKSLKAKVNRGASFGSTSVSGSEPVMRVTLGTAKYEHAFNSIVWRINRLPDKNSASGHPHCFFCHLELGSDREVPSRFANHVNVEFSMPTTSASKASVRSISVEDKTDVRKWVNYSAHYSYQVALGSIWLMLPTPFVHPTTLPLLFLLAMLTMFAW
UniProt Q16514: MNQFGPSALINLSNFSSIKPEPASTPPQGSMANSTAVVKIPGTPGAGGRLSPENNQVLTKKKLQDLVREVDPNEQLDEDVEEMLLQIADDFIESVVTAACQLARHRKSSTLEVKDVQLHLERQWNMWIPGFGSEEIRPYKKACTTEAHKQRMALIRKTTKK
UniProt Q01995: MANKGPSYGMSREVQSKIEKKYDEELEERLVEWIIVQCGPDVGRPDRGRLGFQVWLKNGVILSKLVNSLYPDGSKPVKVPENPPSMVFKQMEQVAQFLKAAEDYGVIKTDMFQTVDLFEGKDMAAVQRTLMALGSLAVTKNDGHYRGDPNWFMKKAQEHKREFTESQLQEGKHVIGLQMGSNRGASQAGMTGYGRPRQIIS
UniProt Q8NBK3: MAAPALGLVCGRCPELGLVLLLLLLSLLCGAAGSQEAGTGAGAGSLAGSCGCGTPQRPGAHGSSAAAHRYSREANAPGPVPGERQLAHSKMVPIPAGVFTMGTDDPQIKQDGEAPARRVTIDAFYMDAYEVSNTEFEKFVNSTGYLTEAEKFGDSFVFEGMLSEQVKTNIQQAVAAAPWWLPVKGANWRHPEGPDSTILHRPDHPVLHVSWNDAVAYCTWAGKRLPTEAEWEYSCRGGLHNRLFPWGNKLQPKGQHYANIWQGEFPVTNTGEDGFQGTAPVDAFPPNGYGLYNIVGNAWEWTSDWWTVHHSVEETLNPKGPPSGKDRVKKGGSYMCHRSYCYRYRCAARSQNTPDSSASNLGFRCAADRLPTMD
UniProt Q15022: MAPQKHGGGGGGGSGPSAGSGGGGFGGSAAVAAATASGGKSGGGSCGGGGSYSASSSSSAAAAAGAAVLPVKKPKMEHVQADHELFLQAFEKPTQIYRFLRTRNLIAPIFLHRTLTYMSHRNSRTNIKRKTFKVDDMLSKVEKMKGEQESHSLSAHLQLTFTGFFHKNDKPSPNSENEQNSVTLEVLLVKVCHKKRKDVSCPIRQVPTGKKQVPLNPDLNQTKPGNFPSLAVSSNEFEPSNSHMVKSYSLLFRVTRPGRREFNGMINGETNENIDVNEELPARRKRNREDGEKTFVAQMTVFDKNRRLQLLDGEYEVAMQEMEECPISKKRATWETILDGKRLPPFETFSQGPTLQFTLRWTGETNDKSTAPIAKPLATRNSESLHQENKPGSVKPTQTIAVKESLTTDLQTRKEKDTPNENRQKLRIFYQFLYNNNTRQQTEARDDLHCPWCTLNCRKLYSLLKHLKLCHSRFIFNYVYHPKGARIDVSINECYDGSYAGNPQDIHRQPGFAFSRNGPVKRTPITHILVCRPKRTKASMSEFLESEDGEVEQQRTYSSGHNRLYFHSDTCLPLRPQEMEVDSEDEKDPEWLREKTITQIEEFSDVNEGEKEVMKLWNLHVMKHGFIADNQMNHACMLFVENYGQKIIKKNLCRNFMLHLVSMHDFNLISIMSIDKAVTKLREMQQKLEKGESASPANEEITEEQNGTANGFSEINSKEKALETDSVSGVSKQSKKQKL
UniProt Q8TDR2: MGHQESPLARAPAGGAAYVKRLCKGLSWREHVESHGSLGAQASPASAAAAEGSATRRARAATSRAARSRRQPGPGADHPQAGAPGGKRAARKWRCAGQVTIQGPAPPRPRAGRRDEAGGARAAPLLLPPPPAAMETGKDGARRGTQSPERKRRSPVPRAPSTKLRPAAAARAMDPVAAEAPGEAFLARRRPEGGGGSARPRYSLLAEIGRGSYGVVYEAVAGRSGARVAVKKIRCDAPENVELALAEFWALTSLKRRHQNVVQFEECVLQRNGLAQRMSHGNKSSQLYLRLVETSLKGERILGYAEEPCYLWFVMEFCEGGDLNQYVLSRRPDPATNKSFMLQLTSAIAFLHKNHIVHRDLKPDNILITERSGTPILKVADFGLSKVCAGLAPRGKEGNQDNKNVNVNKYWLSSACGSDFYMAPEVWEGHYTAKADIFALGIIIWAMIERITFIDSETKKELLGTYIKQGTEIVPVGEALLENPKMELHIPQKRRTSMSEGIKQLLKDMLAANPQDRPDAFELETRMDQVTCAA
UniProt O95359: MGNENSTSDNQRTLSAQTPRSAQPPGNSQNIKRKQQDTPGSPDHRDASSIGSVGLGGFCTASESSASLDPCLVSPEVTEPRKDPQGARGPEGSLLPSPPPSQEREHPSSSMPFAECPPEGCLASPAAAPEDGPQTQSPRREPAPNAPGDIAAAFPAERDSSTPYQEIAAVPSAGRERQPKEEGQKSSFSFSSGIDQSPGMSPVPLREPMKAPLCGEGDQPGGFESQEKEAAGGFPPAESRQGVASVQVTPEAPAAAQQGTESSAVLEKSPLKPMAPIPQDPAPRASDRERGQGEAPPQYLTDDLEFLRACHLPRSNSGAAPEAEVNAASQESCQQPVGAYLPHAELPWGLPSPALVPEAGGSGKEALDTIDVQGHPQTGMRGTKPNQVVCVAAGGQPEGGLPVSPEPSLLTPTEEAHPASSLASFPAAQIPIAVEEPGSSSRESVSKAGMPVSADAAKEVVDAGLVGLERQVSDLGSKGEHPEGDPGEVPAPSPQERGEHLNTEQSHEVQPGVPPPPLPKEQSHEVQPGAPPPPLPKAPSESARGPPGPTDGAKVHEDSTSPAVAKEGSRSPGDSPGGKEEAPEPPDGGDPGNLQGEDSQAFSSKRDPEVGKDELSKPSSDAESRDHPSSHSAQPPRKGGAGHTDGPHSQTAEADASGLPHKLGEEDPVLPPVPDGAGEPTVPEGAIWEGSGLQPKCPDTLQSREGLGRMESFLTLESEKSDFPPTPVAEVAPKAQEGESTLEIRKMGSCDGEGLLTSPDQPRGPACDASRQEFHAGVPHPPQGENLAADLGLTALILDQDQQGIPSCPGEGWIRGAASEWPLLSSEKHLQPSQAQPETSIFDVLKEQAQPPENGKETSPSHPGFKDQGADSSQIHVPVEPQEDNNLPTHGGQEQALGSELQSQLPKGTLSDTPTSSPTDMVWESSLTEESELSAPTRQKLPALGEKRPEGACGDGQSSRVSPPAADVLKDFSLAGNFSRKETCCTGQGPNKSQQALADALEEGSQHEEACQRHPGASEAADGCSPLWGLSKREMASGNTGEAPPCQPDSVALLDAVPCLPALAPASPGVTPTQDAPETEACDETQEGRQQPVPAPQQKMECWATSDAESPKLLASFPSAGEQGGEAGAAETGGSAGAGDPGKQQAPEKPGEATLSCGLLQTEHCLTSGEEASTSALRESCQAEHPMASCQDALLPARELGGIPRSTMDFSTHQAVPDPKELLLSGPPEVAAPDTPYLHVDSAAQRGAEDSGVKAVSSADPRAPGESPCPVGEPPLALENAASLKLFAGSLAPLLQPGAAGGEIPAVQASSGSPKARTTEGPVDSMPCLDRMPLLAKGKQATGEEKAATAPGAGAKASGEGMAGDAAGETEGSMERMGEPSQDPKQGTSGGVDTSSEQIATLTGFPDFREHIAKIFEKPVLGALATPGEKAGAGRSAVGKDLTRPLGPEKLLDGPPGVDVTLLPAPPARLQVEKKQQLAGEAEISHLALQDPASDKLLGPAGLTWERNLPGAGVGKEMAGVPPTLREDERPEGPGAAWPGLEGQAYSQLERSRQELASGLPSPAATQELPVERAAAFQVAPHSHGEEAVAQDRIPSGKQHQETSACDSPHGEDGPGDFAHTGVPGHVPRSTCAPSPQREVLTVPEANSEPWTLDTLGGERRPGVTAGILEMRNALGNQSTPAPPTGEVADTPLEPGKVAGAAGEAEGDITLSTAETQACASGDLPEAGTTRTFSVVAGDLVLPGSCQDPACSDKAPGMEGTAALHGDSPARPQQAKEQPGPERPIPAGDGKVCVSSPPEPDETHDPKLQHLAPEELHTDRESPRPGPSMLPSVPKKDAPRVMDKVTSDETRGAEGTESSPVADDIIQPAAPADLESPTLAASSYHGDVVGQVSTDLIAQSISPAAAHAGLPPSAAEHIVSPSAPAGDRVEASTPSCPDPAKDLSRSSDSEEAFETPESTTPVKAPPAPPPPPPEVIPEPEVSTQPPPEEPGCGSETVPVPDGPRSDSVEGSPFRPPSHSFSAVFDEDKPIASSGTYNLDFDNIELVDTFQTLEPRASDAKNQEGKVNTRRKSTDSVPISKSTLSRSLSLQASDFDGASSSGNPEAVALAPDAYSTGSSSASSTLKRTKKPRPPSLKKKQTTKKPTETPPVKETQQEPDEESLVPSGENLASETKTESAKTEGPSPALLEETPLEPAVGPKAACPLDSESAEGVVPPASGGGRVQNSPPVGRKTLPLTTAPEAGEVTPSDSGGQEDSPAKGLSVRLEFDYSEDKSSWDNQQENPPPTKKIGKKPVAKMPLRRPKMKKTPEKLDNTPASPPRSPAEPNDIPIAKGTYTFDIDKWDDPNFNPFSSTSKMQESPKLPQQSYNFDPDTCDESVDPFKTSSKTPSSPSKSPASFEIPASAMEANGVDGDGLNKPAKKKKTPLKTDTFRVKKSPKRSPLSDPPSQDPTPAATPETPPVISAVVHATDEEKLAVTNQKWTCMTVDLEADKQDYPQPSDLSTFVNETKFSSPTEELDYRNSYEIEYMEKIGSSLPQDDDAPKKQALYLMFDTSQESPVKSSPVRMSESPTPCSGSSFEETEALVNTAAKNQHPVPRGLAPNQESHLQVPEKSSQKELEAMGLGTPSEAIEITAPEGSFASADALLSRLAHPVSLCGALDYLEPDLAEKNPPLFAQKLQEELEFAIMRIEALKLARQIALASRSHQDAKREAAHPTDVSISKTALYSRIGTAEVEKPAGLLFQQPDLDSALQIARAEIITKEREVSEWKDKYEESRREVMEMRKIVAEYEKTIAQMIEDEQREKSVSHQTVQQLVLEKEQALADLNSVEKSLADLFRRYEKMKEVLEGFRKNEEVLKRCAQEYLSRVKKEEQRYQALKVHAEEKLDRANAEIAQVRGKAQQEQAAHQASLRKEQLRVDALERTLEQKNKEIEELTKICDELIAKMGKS
UniProt Q8WUJ0: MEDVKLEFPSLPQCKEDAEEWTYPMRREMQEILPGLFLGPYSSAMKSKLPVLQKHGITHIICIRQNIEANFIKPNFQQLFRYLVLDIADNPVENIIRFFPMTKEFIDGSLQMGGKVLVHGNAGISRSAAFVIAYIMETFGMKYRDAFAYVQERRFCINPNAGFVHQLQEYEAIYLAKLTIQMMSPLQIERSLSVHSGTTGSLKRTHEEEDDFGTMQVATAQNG
UniProt Q8N300: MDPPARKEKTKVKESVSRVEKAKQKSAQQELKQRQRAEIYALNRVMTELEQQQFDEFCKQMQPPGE
UniProt Q9UBI4: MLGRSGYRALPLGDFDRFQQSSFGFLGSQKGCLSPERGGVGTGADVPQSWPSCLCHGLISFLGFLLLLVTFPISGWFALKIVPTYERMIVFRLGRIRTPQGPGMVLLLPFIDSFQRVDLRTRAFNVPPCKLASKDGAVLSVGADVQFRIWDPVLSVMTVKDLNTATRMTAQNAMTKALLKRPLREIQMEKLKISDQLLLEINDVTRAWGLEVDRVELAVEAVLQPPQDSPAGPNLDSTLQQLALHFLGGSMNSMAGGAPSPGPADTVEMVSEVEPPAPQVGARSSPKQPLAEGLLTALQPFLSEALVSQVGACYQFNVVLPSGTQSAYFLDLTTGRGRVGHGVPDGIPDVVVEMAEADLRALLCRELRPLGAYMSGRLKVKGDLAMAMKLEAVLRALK

The other results are listed elsewhere or left out.

Compound in one test: CC(C)N(C[C@H]1O[C@@H](n2cnc3c(N)ncnc32)[C@H](O)[C@@H]1O)[C@H]1C[C@@H](CCc2nc3cc(C(C)(C)C)ccc3[nH]2)C1 [pinometostat]
Description: log2 fold change, soluble protein after heating vs DMSO (PISA); higher = thermal stabilisation; K562 cells, 10 uM, 30 min; active = over 0.2 and 3.5 SD of the protein, either way, in both replicates (recomputed). In a few lines:
(§1)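 Quantification of soluble protein used TMTpro 16plex LC-MS/MS, with channel sums equalised. Samples were the supernatant after 21,000xg for 90 min of pooled aliquots from K562 cells (2×10^6 cells/mL) treated with 10 μM compound for 30 min, heated for 3 min over 48°C-58°C, and extracted in PBS with 0.5% NP-40 at 4°C. Values, from duplicates, describe thermal stability against control samples on a log2 fold-change scale.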
In the case of TAOK2 (UniProt Q9UL54), the log2 fold change is inactive: 0.031. Regarding STON2 isoform 3 (UniProt Q8WXE9), the log2 fold change is inactive: 0.009. For SUN1 isoform 9 (UniProt O94901), the log2 fold change is inactive: 0.128.

SUCO (UniProt Q9UBS9): the log2 fold change was inactive: 0.085.

Take STXBP5L (UniProt Q9Y2K9): the log2 fold change was inactive: -0.083.

As for STXBP4 (UniProt Q6ZWJ1), the log2 fold change is inactive: -0.042. Same read-out and setting: the figure for TAF12 (UniProt Q16514) is inactive: -0.013; for TAGLN (UniProt Q01995) it is inactive: 0.037. Turning to SUMF1 isoform 3 (UniProt Q8NBK3), the log2 fold change was inactive: 0.119. In the case of SUZ12 (UniProt Q15022), the log2 fold change is inactive: 0.065. For the target TAF5 (UniProt Q15542), the log2 fold change was inactive: 0.38.

Compound in another test: CC1=C(C(CC(=O)N1)C2=CC=C(C=C2)C(F)(F)F)C(=O)NC3=C(C=C4C(=C3)C=NN4)F
The test is described as above. The method, boiled down: as §1
On to SULT1E1 (UniProt P49888), for which the log2 fold change was inactive: 0.005. As to STON2 isoform 3 (UniProt Q8WXE9), the log2 fold change is inactive: 0.015. Still for that read-out and setting: in the case of STRIP2 (UniProt Q9ULQ0) it was inactive: 0.018; in that of SYTL4 (UniProt Q96C24), inactive: -0.091; in that of STXBP5L (UniProt Q9Y2K9), inactive: -0.05. Still for that read-out and setting: in the case of STK36 (UniProt Q9NRP7) it was inactive: 0.024; in that of TASP1 (UniProt Q9H6P5), inactive: 0.007; in that of SUGP2 (UniProt Q8IX01), inactive: 0.034.

For TAF12 (UniProt Q16514), the log2 fold change is inactive: 0.048. The same measure, in the same setting: in the case of SUMF1 isoform 3 (UniProt Q8NBK3) it was inactive: -0.38; in that of SUZ12 (UniProt Q15022), inactive: 0.005; in that of STK35 (UniProt Q8TDR2), inactive: -0.142.

Compound in another test: CC1=C(C2=C(C=C1)C(=O)C3=CC=CC=C3N2CCCN)C
The description is as above. The method, boiled down: as §1
Turning to TAOK2 (UniProt Q9UL54), the log2 fold change is inactive: 0.127. Still for that read-out and setting: the figure for STON2 isoform 3 (UniProt Q8WXE9) is inactive: -0.211; for STRIP2 (UniProt Q9ULQ0) it is inactive: 0.041.

As to TAF6L (UniProt Q9Y6J9), the log2 fold change is inactive: -0.03.

TBC1D12 (UniProt O60347): the log2 fold change was inactive: 0.078. For the target SUN1 isoform 9 (UniProt O94901), the log2 fold change was inactive: -0.05.

Consider SUCO (UniProt Q9UBS9), for which the log2 fold change was inactive: 0.006. Still for that read-out and setting: in the case of SYTL4 (UniProt Q96C24) it was inactive: 0.137; in that of TACC2 (UniProt O95359), inactive: 0.058; in that of STYX (UniProt Q8WUJ0), inactive: 0.113. Same read-out and setting: the figure for TAF11 (UniProt Q15544) is inactive: 0.054; for TAF13 (UniProt Q15543) it is inactive: 0.006.

TAF12 (UniProt Q16514): the log2 fold change is inactive: -0.069. The same measure, in the same setting: in the case of SYNGR1 isoform 3 (UniProt O43759) it was inactive: 0.137; in that of TAB2 (UniProt Q9NYJ8), inactive: 0.038. Consider SUMF1 isoform 3 (UniProt Q8NBK3), for which the log2 fold change was inactive: -0.098. With SVBP (UniProt Q8N300), the log2 fold change is inactive: -0.032. Regarding STOML1 (UniProt Q9UBI4), the log2 fold change was inactive: -0.021.
